Source: patent publication US6469059B1, “Fungicidal composition and method for disease control of paddy-rice plants” (BASF Aktiengesellschaft, priority 1999, dated 2002)
Like-named read-outs stand apart in the source and are kept apart here. At least one read-out could not be matched to a standard name with certainty.

Test system: Blast (Pyricularia oryzae)
Type: in vivo
Settings: foliar spray before inoculation, rice plant (Kin-maze)

| Compound | Preventive index (5 ppm active ingredient) | Preventive index (50 ppm active ingredient) | Preventive index (10 ppm active ingredient) |
| --- | --- | --- | --- |
| CCC1(C(=O)NC(C)c2ccc(Cl)cc2)C(C)C1(Cl)Cl (centres unmarked) [Compound 20, N-[1-(4-chlorophenyl)ethyl]-2,2-dichloro-1-ethyl-3-methyl-cyclopropanecarboxamide] | 4 (Preventive value 85 to 94%) |  |  |
| C/C(=N/Nc1nc(C)cc(C)n1)c1ccccc1C [Compound 11, (Z)-2′-methylacetophenone 4,6-dimethylpyrimidin-2-ylhydrazone] |  | 3 (Preventive value 60 to 84%) |  |
| CC(Oc1ccc(Cl)cc1Cl)C(=O)NC(C)(C#N)C(C)C (centres unmarked) [Compound A, N-(1-cyano-1,2-dimethylpropyl)-2-(2,4-dichlorophenoxy)propanamide] | 4 (Preventive value 85 to 94%) |  | 4 (Preventive value 85 to 94%) |
| O=C1OCc2c(Cl)c(Cl)c(Cl)c(Cl)c21 [Compound 18, 4,5,6,7-tetra-chlorophthalide] | 3 (Preventive value 60 to 84%) |  |  |
| CO/C=C(/C(=O)OC)c1ccccc1Oc1cc(Oc2ccccc2C#N)ncn1 [Compound 13, methyl (E)-2-{2-[6-(2-cyanophenoxy)pyrimidin-4-yloxy]phenyl}-3-methoxy-acrylate] |  |  | 4 (Preventive value 85 to 94%) |
| CNC(=O)/C(=N/OC)c1ccccc1Oc1ccccc1 [Compound 14, 2-methoxyimino-N-methyl-2-(2-phenoxy)phenyl-acetamide] |  | 4 (Preventive value 85 to 94%) |  |
| CC(C)OC(=O)C(C(=O)OC(C)C)=C1SCCS1 [Compound 15, diisopropyl-1,3-dithiolan-2-ylidenemalonate] |  | 4 (Preventive value 85 to 94%) |  |
